# PubChem BioAssay AID1259254 – NCATS – 2017
# Aim: 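Finding genes that stop cells copying their DNA twice in one cycle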 (primary screen)
# Cells: human HCT116 colorectal cancer cells
# Knock-down reagent: single siRNA against human genes
# Duration: 3 days
# Read-out: 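Imaged Hoechst DNA stain sorts each cell into a cycle phase by DNA amount; per plate, G2 fraction set to 0% for non-targeting and 100% for GMNN siRNA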
# Direction: G2 robust z-score and G2 cells, % of GMNN control: higher = more G2 cells, more excess DNA replication; raw share of cells in G2: higher = larger share of cells with G2 DNA content
# Hit rule: 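An siRNA counts as active if its G2 robust z-score lies at least 5 MADs above the screen median; here such calls match roughly 38% of GMNN control or more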
# Here is a random part of about 59,000 deposited reagents. About 1,550 of them (2.6%) were called active. 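G2 share is only a proxy for re-replication; each gene was hit by three separate siRNAs, and active genes were retested.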 The raw values are shown without normalisation. The numbers tell different reagents against one gene apart. Not given: the amount of reagent.
target gene,reagent,G2 robust z-score,"G2 cells, % of GMNN control",raw share of cells in G2 (%),activity call
BACH2,1,1.59,14.1,9.34,inactive
BACH2,2,-0.41,0.0851,4.26,inactive
BACH2,3,1.28,12,10.6,inactive
UBFD1,1,-1.58,-8.11,1.15,inactive
UBFD1,2,-0.466,-0.312,4.31,inactive
UBFD1,3,2.91,23.5,10.5,inactive
SQSTM1,1,0.00553,3.01,6.46,inactive
SQSTM1,2,1.84,15.9,10.2,inactive
SQSTM1,3,1.39,12.8,7.86,inactive
RND2,1,0.428,5.98,8.12,inactive
RND2,2,1.7,14.9,9.81,inactive
RND2,3,4.07,31.6,14.9,inactive
BMPR1B,1,-1.08,-4.67,4.07,inactive
BMPR1B,2,-1.13,-4.95,3.74,inactive
BMPR1B,3,-0.681,-1.82,3.38,inactive
NCMAP,1,1.71,15,11,inactive
NCMAP,2,-0.342,0.562,4.02,inactive
NCMAP,3,-0.469,-0.329,3.39,inactive
CDX1,1,-0.356,0.462,4.26,inactive
CDX1,2,0.487,6.4,7.33,inactive
CDX1,3,1.52,13.6,9.83,inactive
SLC5A4,1,-1.77,-9.52,2.48,inactive
SLC5A4,2,-0.546,-0.871,4.25,inactive
SLC5A4,3,-0.701,-1.96,3.31,inactive
AIMP1,1,-0.681,-1.82,4.05,inactive
AIMP1,2,0.248,4.71,6.92,inactive
AIMP1,3,1.3,12.1,10,inactive
ERICH6,1,-0.226,1.38,4.69,inactive
ERICH6,2,3.16,25.2,11.1,inactive
ERICH6,3,-0.688,-1.87,1.9,inactive

The list goes on; the last 2 above are carried over.
target gene,reagent,G2 robust z-score,"G2 cells, % of GMNN control",raw share of cells in G2 (%),activity call
ERICH6,2,3.16,25.2,11.1,inactive
ERICH6,3,-0.688,-1.87,1.9,inactive
POLQ,1,0.15,4.02,5.14,inactive
POLQ,2,-0.839,-2.94,4.42,inactive
POLQ,3,-0.552,-0.917,6.12,inactive
OPN5,1,1.38,12.7,10.4,inactive
OPN5,2,-0.0624,2.53,5.4,inactive
OPN5,3,0.711,7.97,5.71,inactive
EEF2,1,-0.618,-1.38,4.74,inactive
EEF2,2,0.264,4.83,5.38,inactive
EEF2,3,-1.51,-7.63,2.46,inactive
FBN3,1,0.302,5.09,6.67,inactive
FBN3,2,-0.21,1.49,4.73,inactive
FBN3,3,-0.45,-0.198,5.35,inactive
IGHMBP2,1,-0.402,0.137,5.09,inactive
IGHMBP2,2,0.147,4,5.67,inactive
IGHMBP2,3,0.443,6.09,8,inactive
SLC25A29,1,0.502,6.5,8.69,inactive
SLC25A29,2,-0.769,-2.45,3.92,inactive
SLC25A29,3,-1.17,-5.29,2.48,inactive
STAT3,1,0.151,4.03,5.29,inactive
STAT3,2,1.02,10.1,8.02,inactive
STAT3,3,1.84,15.9,11,inactive
RCE1,1,-0.959,-3.78,4.24,inactive
RCE1,2,-1.28,-6,1.67,inactive
RCE1,3,3.15,25.1,13.8,inactive
KRTAP4-11,1,0.184,4.26,5.89,inactive
KRTAP4-11,2,-0.616,-1.37,2.57,inactive
KRTAP4-11,3,0.0696,3.46,4.02,inactive
CA2,1,-0.713,-2.05,4.02,inactive
CA2,2,-0.211,1.49,5.6,inactive
CA2,3,-0.622,-1.41,3.47,inactive
ZNF14,1,0.145,3.99,4.85,inactive
ZNF14,2,-0.224,1.39,6.61,inactive
ZNF14,3,-0.136,2.01,4.18,inactive
PCBP1-AS1,1,1.1,10.7,7.71,inactive
PCBP1-AS1,2,3.11,24.9,13.4,inactive
PCBP1-AS1,3,-0.783,-2.54,3.74,inactive
CYP4X1,1,0.668,7.67,7.51,inactive
CYP4X1,2,1.34,12.4,9.91,inactive
CYP4X1,3,-1.33,-6.37,2.92,inactive
KCNE1,1,-0.749,-2.3,4,inactive
KCNE1,2,0.318,5.21,6.41,inactive
KCNE1,3,0.716,8.01,8.2,inactive
ING1,1,0.181,4.24,6.83,inactive
ING1,2,-0.676,-1.79,2.75,inactive
ING1,3,2.44,20.1,10.4,inactive
KIF23,1,4.24,32.8,14.4,inactive
KIF23,2,6.03,45.4,22.4,active
KIF23,3,3.98,31,17.3,inactive
CHRDL1,1,-0.786,-2.56,3,inactive
CHRDL1,2,2.59,21.2,9.63,inactive
CHRDL1,3,1.25,11.8,6.65,inactive
FATE1,1,-0.0665,2.5,3.72,inactive
FATE1,2,6.25,46.9,24,active
FATE1,3,-0.4,0.157,3.05,inactive
COX5B,1,0.453,6.15,6.22,inactive
COX5B,2,0.636,7.44,7.71,inactive
COX5B,3,-0.791,-2.6,4.03,inactive
